Values quoted from earlier work as cited in patent US20050163731A1, “Skin depigmenting compositions comprising adapalene and at least one depigmenting active agent” (GALDERMA RESEARCH & DEVELOPMENT, S.N.C., priority 2002, published 2005).
For at least one compound, name, drawing or mass did not settle the structure.

Tested on: skin pigmentation
Conditions: Guevara and Pandya, Int. J. Dermatol. 2001; cited from earlier work

Compound: CC1=C(/C=C/C(C)=C/C=C/C(C)=C/C(=O)O)C(C)(C)CCC1 [Retinoic acid]
- Skin depigmenting activity: known to itself have a skin depigmenting activity
